From article PMC10901781
These are yes or no findings as the source states them, for the method shown. In cells and extracts the contact can be indirect. Some results given as binding are weak or reduced against the parent protein; the word gives no strength. Each block holds one binder with its values, some of them ahead of it.

Chains of the proteins cited; added tags and fusions are not shown.
UniProt Q03347: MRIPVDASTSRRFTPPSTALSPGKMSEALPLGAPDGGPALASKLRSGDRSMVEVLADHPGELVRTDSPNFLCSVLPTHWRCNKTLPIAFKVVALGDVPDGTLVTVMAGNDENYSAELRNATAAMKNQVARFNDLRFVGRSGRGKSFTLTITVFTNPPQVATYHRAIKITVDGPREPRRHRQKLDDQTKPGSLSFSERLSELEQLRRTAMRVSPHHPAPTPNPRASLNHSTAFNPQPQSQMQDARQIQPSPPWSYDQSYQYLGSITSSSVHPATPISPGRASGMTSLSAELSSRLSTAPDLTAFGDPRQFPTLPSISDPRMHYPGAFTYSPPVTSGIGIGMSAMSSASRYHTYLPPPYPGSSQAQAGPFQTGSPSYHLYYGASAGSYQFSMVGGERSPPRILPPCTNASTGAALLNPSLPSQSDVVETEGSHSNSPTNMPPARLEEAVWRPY
UniProt Q01196: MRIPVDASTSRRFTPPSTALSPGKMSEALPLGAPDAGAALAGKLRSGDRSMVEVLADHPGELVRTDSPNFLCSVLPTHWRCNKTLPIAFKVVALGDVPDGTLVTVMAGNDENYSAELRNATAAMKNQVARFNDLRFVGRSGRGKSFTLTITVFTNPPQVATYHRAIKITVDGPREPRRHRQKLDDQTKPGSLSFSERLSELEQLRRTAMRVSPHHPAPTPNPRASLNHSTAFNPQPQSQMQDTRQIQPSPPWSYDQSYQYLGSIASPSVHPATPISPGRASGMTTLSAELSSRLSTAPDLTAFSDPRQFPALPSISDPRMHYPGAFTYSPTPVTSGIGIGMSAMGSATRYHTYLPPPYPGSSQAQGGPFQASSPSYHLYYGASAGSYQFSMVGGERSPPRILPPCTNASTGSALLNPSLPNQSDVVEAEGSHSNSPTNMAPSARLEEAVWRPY

Tests used:
[1] = target: Runx1 (mouse (endogenous in spleen and bone marrow cells)) (UniProt Q03347); assay: co-IP; reciprocal IPs of endogenous Phf6 and Runx1, mouse spleen and bone marrow protein extracts; IgG control; western blot
[2] = target: RUNX1 (human (endogenous in THP-1)) (UniProt Q01196); assay: co-IP; endogenous proteins, THP-1 nuclear protein extracts; agarose-conjugated anti-PHF6 or anti-RUNX1 antibody, IgG control; 4 °C overnight, five washes of 1x PBS with 1% NP-40; western blot
[3] = target: wild-type RUNX1 (primary AML samples) (human (endogenous in primary AML cells)) (UniProt Q01196); assay: co-IP; IP and western blot of primary AML samples with wild-type RUNX1 or with a Runt domain mutation

- binding [1]: binds
B1: Phf6 (protein, UniProt Q9D4J7 1-364)
chain: MSSSIEQKKGSTRQRKCGFCKSNRDKECGQLLISENQKVAAHHKCMLFSSALVSSHSDNESLGGFSIEDVQKEIKRGTKLMCSLCHCPGATIGCDVKTCHRTYHYHCALHDKAQIREKPSQGIYMVYCRKHKKTAHNSEADLEESFNEHELEPSSPKTKKKSRKGRPRKTNLKGLPEDSRSTSSHGTDEMESSSYRDRSPHRSSPNDTRPKCGFCHVGEEENEARGKLHIFNAKKAAAHYKCMLFSSGTVQLTTTSRAEFGDFDIKTVLQEIKRGKRMKCTLCSQPGATIGCEIKACVKTYHYHCGVQDKAKYIENMSRGIYKLYCKNHSGNDERDEEDEERESKSRGRVAIDQQLTQQQLNGN

- binding [2]: binds
B2: PHF6 (protein, UniProt Q8IWS0 1-365)
chain: MSSSVEQKKGPTRQRKCGFCKSNRDKECGQLLISENQKVAAHHKCMLFSSALVSSHSDNESLGGFSIEDVQKEIKRGTKLMCSLCHCPGATIGCDVKTCHRTYHYHCALHDKAQIREKPSQGIYMVYCRKHKKTAHNSEADLEESFNEHELEPSSPKSKKKSRKGRPRKTNFKGLSEDTRSTSSHGTDEMESSSYRDRSPHRSSPSDTRPKCGFCHVGEEENEARGKLHIFNAKKAAAHYKCMLFSSGTVQLTTTSRAEFGDFDIKTVLQEIKRGKRMKCTLCSQPGATIGCEIKACVKTYHYHCGVQDKAKYIENMSRGIYKLYCKNHSGNDERDEEDEERESKSRGKVEIDQQQLTQQQLNGN

- binding [3]: binds
B3: PHF6 (primary AML samples) (protein, UniProt Q8IWS0 1-365)
chain: MSSSVEQKKGPTRQRKCGFCKSNRDKECGQLLISENQKVAAHHKCMLFSSALVSSHSDNESLGGFSIEDVQKEIKRGTKLMCSLCHCPGATIGCDVKTCHRTYHYHCALHDKAQIREKPSQGIYMVYCRKHKKTAHNSEADLEESFNEHELEPSSPKSKKKSRKGRPRKTNFKGLSEDTRSTSSHGTDEMESSSYRDRSPHRSSPSDTRPKCGFCHVGEEENEARGKLHIFNAKKAAAHYKCMLFSSGTVQLTTTSRAEFGDFDIKTVLQEIKRGKRMKCTLCSQPGATIGCEIKACVKTYHYHCGVQDKAKYIENMSRGIYKLYCKNHSGNDERDEEDEERESKSRGKVEIDQQQLTQQQLNGN
